These are yes or no findings as the source states them, for the method shown. Some results given as binding are weak or reduced against the parent protein; the word gives no strength.
Target: Mouse MLKL S131P (mouse) (UniProt Q9D2Y4)
Test: native gel or EMSA; Blue-Native PAGE (4-16% NativePAGE) of the crude membrane fraction solubilised in 1% digitonin, from immortalised MDFs stimulated with TNF + IFN-beta for 22 hours; immunoblot

B1: Mouse MLKL S131P (protein, UniProt Q9D2Y4 1-472)
chain: MDKLGQIIKLGQLIYEQCEKMKYCRKQCQRLGNRVHGLLQPLQRLQAQGKKNLPDDITAALGRFDEVLKEANQQIEKFSKKSHIWKFVSVGNDKILFHEVNEKLRDVWEELLLLLQVYHWNTVSDVSQPAPWQQEDRQDAEEDGNENMKVILMQLQISVEEINKTLKQCSLKPTQEIPQDLQIKEIPKEHLGPPWTKLKTSKMSTIYRGEYHRSPVTIKVFNNPQAESVGIVRFTFNDEIKTMKKFDSPNILRIFGICIDQTVKPPEFSIVMEYCELGTLRELLDREKDLTMSVRSLLVLRAARGLYRLHHSETLHRNISSSSFLVAGGYQVKLAGFELSKTQNSISRTAKSTKAERSSSTIYVSPERLKNPFCLYDIKAEIYSFGIVLWEIATGKIPFEGCDSKKIRELVAEDKKQEPVGQDCPELLREIINECRAHEPSQRPSVDGRSLSGRERILERLSAVEESTDKKV
  binding: binds

— PMC10539340, “A common human MLKL polymorphism confers resistance to negative regulation by phosphorylation” (Nature Communications, 2023)
